Among the data in US20160207996A1 (ARGEN X N V, published 2016) are binding values, retold here.

Experiment [1] has as its target CXCR4. The experiment can be described thus: mAb binding ELISA, lipoparticles coated at 10 U/well, A450 [upper chart]. A general note: An ELISA detects its analyte on a solid surface through an enzyme-linked reagent.
For experiment [2], the target named is CXCR4. The experiment can be described thus: mAb binding ELISA, lipoparticles coated at 10 U/well, A450 [lower chart].

Substitutions are numbered along the chain they refer to. Results are given in words; binding and its absence hold for the method and conditions named.

B1: mAb 6A1 (antibody, IgG1, V domains shown)
VH: EVQLVESGGGLVQPGGSLRLSCAASGFTFSRNAMTWVRQAPGKGLEWVSAISSTGNSITEADSVKGRFTISRDNAKNMLYLQMNSLKPEDTAVYYCAKLGGDTWYMEYWGQGTQVTVSS
VL: SYELTQSPSMSVALRQTAKITCGGNNIGSKSAQWYQQKPGQAPVLVIYADNRRPSGIPERFSGSNSGNTATLTISGAQAEDEADYYCQVWDSSANAVFGRGTHLTVLG
In the case of B1, the binding entry with CXCR4 [1] is recorded as “no binding (tested: 1 µg/ml)”.

B2: mAb 6D8 (antibody, IgG1, V domains shown)
VH: B1 VH with E1Q, V2L, R31S
VL: SYELTQSPSVSVALRQTAKITCGGNGIGSKIVHWYQQKPGQAPVLVIYADVRRPSEIPERFSGSNSGDTATLTVSGAQAEDEADYYCQVWDSSANAAVFGGGTHLTVLG
For the molecule B2, the binding result in the experiment with CXCR4 [2] is reported as “no binding (tested: 1 µg/ml)”.

B3: mAb 6B7 (antibody, IgG1, V domains shown)
VH: B1 VH with E1Q, V2L, R31S
VL: SSALTQPSAVSVSLGQTARITCQGDNFGSIDPHWYQQKPGQDPVVVIYQYNNRPSGIPERFSGLKSGNTATLIISGAQAEDEADYYCQLWDSRAKAVFGGGTHLTVLG
As for B3, in the experiment with CXCR4 [2], the binding entry is “no binding (tested: 1 µg/ml)”.

B4: mAb 6B3 (antibody, IgG1, V domains shown)
VH: QLQVVESGGGLVQPGGSLRLSCAASGFTFSTYVMSWVRQAPGKGLEWVSGINSGGGSTSYADSVKGRFTISRDNAKNTLYLQMNSLKPEDTAVYYCAKVGDGSAWYYYYGMDYWGQGTQVTVSS
VL: SSALTQPSAVSVSLGQTARITCQGGNLDGYYHAWYQQKPGQAPVQVIFGNNNRPSGIPERFSGSSSGGTTTLTISGAQAEDEADYYCQSYENSGYNIVFGGGTHLTVLG
On to B4, for which the binding result in the experiment with CXCR4 [1] is listed as “no binding (tested: 1 µg/ml)”.

B5: mAb 6A5 (antibody, IgG1, V domains shown)
VH: EVQLQESGGGSVQPGGSLRLSCAASGFTFSANAMTWVRQAPGKGLEWVSAISGTGASTSYADSVKGRFTVSRDNAKNTLYLQVNNLKPEDTAVYRCAKLGGDTWYMEYWAKGTLVTVSS
VL: SYELTQSPSVSVALRQTAKITCGGDNIGSKYVNWYQQKPSQTPVLVIYKDSNRPSGIPERFSGSNSGNTAALTISGAQAEDEADYYCQVWDGSAAVFGGGTHLSVLG
For B5, the binding entry with CXCR4 [1] is on record as “no binding (tested: 1 µg/ml)”.
